## Library screening results

Results are given as percent effect. How 0% and 100% were set is not recorded. Most values in the screen are low, and negative values occur. Compounds were drawn at random from those tested, without regard to their results. Two or more numbers in one place are separate tests of the same structure; such repeats can differ widely.

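Viability assay of Plasmodium falciparum sporozoites; the read-out is not stated. The concentration is filed as 10 mM, unlikely as a test dose, so the dose is not known. Higher reads as lower viability (inferred: compounds with an IC50 in retests scored well above the rest). Strong results were mostly tested again. Of about 34,000 compounds tested this way, about 280 (0.84%) reached 50% or more in at least one test.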

Compound	percent effect
Cc1ccccc1CC(=O)NCc1cnc(CC2CCN(C)CC2)cn1	-4.042%
COc1ccc(C(CNS(=O)(=O)c2cn(C)nc2C)N2CCCC2)cc1.Cl (stereo not given)	8.546%
O=C1CCc2cc(-c3csc(CCN4CCOC4=O)n3)ccc2N1	3.493%
Cc1noc(C(C)Nc2ccc3oc(C(C)C)nc3c2)n1 (stereo not given)	5.148%
O=C(Cc1ccc2c(c1)OCO2)N1CCN(c2cnccn2)CC1	7.914%
CC(CN1CCCCCC1)NCc1cc(-c2ccco2)on1 (stereo not given)	-11.54%
CCNc1cc2c(nn1)CCN(C(=O)c1cccc3c1OCO3)C2	17.97%
CC(C)c1cc(N2CCC[C@H](N)C2)n2nccc2n1	-9.592%
O=C(O)[C@@H]1CN(C(=O)CN2Cc3ccccc3C2)C[C@H]1c1ccncc1	-17.7%
CCOc1ccc(NC(=O)N(CCN(C)C)C(C)c2ccncc2)cc1 (stereo not given)	-6.085%
Cc1nn(C)c(C)c1C1CCCN1C(=O)c1ccc2nnc(C)n2c1 (stereo not given)	-1.877%
CCN(CC1CCCN(CCc2cccc(OC)c2)C1)C(=O)CSC (stereo not given)	-5.965%
COc1ccc(C(=O)NCCCNc2ccc(C(F)(F)F)cn2)cc1	2.481%
CC(C)(O)CN1CCN(C(=O)c2cccc(CC#N)c2)CC1	-12.1%
CCc1n[nH]c(C2CN(C(=O)CCn3ccccc3=O)CCO2)n1 (stereo not given)	3.857%
CC(C)c1n[nH]c(C2CN(C(=O)c3ccnc(C4CC4)n3)CCO2)n1 (stereo not given)	-7.381% and 6.244% and 3.064%
CN1C(=O)CC(c2cnn(C)c2)C12CCN(C(=O)c1cccn1C)CC2 (stereo not given)	-1.784%
N#Cc1cnn(-c2ccc(C(=O)Nc3ccccn3)cc2)c1N	14.06%
NCCCn1nc(C(F)(F)F)c2c1CCC2	14.64%
CC(=O)N1CCC(Oc2ccc(Cl)cn2)CC1	-17.59%
CCS(=O)(=O)CCN1CCC(N(C)Cc2noc(C(C)C)n2)C1 (stereo not given)	-0.3556%
Cc1noc(C)c1CC(=O)N[C@@H]1CC[C@@H](Oc2ccccc2)[C@@H]1O	3.978%
O=C(NCC1CC(=O)N(CCc2ccccc2)C1)c1ccc[nH]1 (stereo not given)	-6.946%
CC(=O)Nn1ccc2c(nnc3c(-c4ccccc4)cnn32)c1=O	-18.8%
CCn1ncnc1C1CC(=O)NCc2nc(N3CCCC3)sc21 (stereo not given)	-9.49%
Cc1cnc(CCNc2cccc(CC3CCCNC3)n2)s1.Cl (stereo not given)	-6.2%
CC(=O)N1CCC(Cc2cnc(-c3c(C)nn(C)c3C)cn2)C1 (stereo not given)	-6.574%
CCO[C@H]1CN(C)C[C@@H]1NC(=O)c1cc(C)nc2c(C)c(C)ccc12	-58%
CCCNC(=O)C(C)n1nc(-c2ccc(C)o2)cc(N)c1=O (stereo not given)	-3.107%
CC(=O)NCC(=O)N1Cc2nccn2CC(CN2CCCC2=O)C1 (stereo not given)	7.071%
Cc1nc(C2CCCN(S(C)(=O)=O)C2)sc1Br (stereo not given)	-1.151%
CSc1ccc(CNC(c2ccccc2)c2nccn2C)cc1 (stereo not given)	-0.08354%
Fc1cnc(N2CCC3(COCc4cnc(NCC5CC5)nc43)C2)nc1 (stereo not given)	-16.93%
Cc1nn(C)c(C)c1C1CCCN1Cc1nc2ccccc2n1C (stereo not given)	-1.283%
CS(=O)(=O)c1nnc(NC(=O)CCc2ccc(Cl)s2)[nH]1	1.829%
c1cnc(Nc2cncc(C3CCCN(c4cnccn4)C3)n2)nc1 (stereo not given)	10.59%
CCn1ccnc1CN1CCN(C(C)C(=O)NC2CCCC2)CC1 (stereo not given)	9.272%
COC(=O)c1cccn1C1CCN(C(=O)c2cc(F)ccc2C)CC1	1.171%
CNS(=O)(=O)CCCN1CCCC1c1cc(C)on1 (stereo not given)	-5.016%
CC(C)c1cc(C(=O)N2CCc3nc(C4CCCN4)ncc3C2)cs1.Cl (stereo not given)	-10.83%
O=S(=O)(NC1=NCN(CCc2cccs2)CN1)c1ccccc1	-6.14%
COc1ccc(CNC(=O)NC2CCN(CC(F)F)CC2)cc1C	1.615%
Cc1ncsc1CCNC(=O)Cn1nc(C)n(Cc2ccccc2)c1=O	-2.807%
Cn1ncc2cnn(CC(O)COc3cccc4[nH]ccc34)c2c1=O (stereo not given)	1.6%
Cc1cnn(CCNCC(=O)NCc2ccccc2)c1	-7.579%
CC(C)c1nnc(CN2CCCC(Cn3cncn3)C2)o1 (stereo not given)	3.028%
Cc1ccc(C)c(NC(=O)Nc2c[nH]c(=O)[nH]c2=O)c1	4.581%
CCS(=O)(=O)N1Cc2nccn2CC(Cn2nc(C)nc2C)C1 (stereo not given)	-18.92%
CCCc1cc(C(=O)NC(COC)c2ccnn2C)no1 (stereo not given)	5.192%

Repeated from the top, 3 entries:

| Compound | percent effect |
|---|---|
| `Cc1ccccc1CC(=O)NCc1cnc(CC2CCN(C)CC2)cn1` | -4.042% |
| `COc1ccc(C(CNS(=O)(=O)c2cn(C)nc2C)N2CCCC2)cc1.Cl` (stereo not given) | 8.546% |
| `O=C1CCc2cc(-c3csc(CCN4CCOC4=O)n3)ccc2N1` | 3.493% |

Source: ChEMBL document CHEMBL3988442, “University of Dundee, Small-Polar-MMV Screening Library” (2021).